Data: patent publication US8034787B2 (Medarex, Inc., priority 1998, dated 2011)
Values joined by “and” are separate entries in the source; they are usually repeats but may differ in a detail not shown here. Equal entries are not always repeated. For part of these data: Strings that start with PEPTIDE1 are HELM notation: dots part the residues, brackets hold end groups and non-standard residues. * marks the point of attachment. MeOSuc = COC(=O)CCC(=O)*; βAla = NCCC(=O)O

Legend:
[1] = general procedure: Fmoc solid-phase peptide synthesis; Wang's alkoxy resin (0.60 mmol/gm loading); HBTU/DIEA (SPPS); HATU or HBTU/DIEA for drug coupling
[2] = general procedure: Fmoc solid-phase peptide synthesis; Wang's alkoxy resin; HBTU/DIEA (SPPS); HATU or HBTU/DIEA for drug coupling; conditions: whole synthesis, method A, sodium salt; lactate salt
[3] = late stage modification step, HPLC (methods A, B, D), sodium salt, lactate salt
[4] = late stage modification step, sodium salt, lactate salt
[5] = conjugation step, method A, sodium salt, lactate salt
[6] = conjugation step, sodium salt, lactate salt
[7] = late stage modification step, method B, sodium salt, lactate salt
[8] = conjugation step, Method B, sodium salt, lactate salt
[9] = conjugation step, physical yield, sodium salt, lactate salt
[10] = late stage modification step, sodium salt

Fmoc-βAla-Leu-Ala-Leu benzyl ester
crude HPLC purity [1, 3]: 95% | step yield [1, 4]: 87%

βAla-Leu-Ala-Leu benzyl ester
crude purity (method not given) [1, 3]: 67%

Fmoc form of Thi-Tyr-Gly-Leu-Dnr
crude HPLC purity [1, 5]: 91% | conjugation yield [1, 6]: 94%

PEPTIDE1{[bAla].L.A.L.[Dox]}$$$$V2.0
step yield ([1]; late stage modification step, lactate salt): 67% | final HPLC purity ([1]; late stage modification step, method B, lactate salt): 89%

N-cap succinyl form of βAla-Leu-Ala-Leu-Dnr
crude HPLC purity [1, 7]: 88% | step yield [1, 4]: 80%

MeOSuc-βAla-Leu-Ala-Leu-Dox
crude purity (method not given) ([1]; conjugation step, HPLC (methods A, B, D), sodium salt, lactate salt): 96% | crude HPLC purity [1, 8]: 93.45% | conjugation yield [1, 9]: 104.47% | conjugation yield [1, 6]: 98% | final HPLC purity ([1]; purification step, HPLC (methods A, B, D), sodium salt, lactate salt): 96.5% | step yield ([1]; purification step, sodium salt, lactate salt): 86%

N-cap succinyl form of Thi-Tyr-Gly-Leu-Dnr
crude HPLC purity ([1]; late stage modification step, method A, sodium salt, lactate salt): 81% | step yield [1, 4]: 80%

Allyl-Succinyl-βAla-Leu-Ala-Leu-Dox
crude HPLC purity [1, 8]: 90%

Fmoc form of Thi-Tyr-Gly-Leu
crude HPLC purity [2]: 88%

MeOSuc-βAla-Leu-Ala-Leu benzyl ester
final purity (method not given) [1, 3]: 80% | step yield [1, 4]: 60%

PEPTIDE1{[Suc].[bAla].L.A.L.[Dox]}$$$$V2.0
crude HPLC purity ([1]; late stage modification step, 254 nm, method B, sodium salt, lactate salt): 93.43% (254 nm) | crude HPLC purity ([1]; late stage modification step, 480 nm, method B, sodium salt, lactate salt): 94.43% (480 nm) | crude HPLC purity ([1]; late stage modification step, HPLC (methods A, B, D), sodium salt): 84.5% | crude HPLC purity ([1]; late stage modification step, HPLC (methods A, B, D), sodium salt, lactate salt, run 1): 89.13% and 88.2% | crude HPLC purity ([1]; late stage modification step, Method B, sodium salt): 89.06% | crude HPLC purity ([1]; late stage modification step, Method D, sodium salt, lactate salt): 91% | crude HPLC purity ([1]; late stage modification step, method B, sodium salt): 84% | crude HPLC purity [1, 7]: 80.2% | step yield ([1]; late stage modification step, physical yield, Na salt): 87% | step yield ([1]; late stage modification step, physical yield, sodium salt, lactate salt, run 1): 81% | step yield ([1]; late stage modification step, physical yield, sodium salt, lactate salt, run 2): 98.34% | step yield ([1]; late stage modification step, physical yield, sodium salt, run 1): 99% | step yield ([1]; late stage modification step, physical yield, sodium salt, run 2): 66.1% | step yield [1, 10]: about 100% | step yield ([1]; late stage modification step, sodium salt, lactate salt, run 1): 97% | step yield ([1]; late stage modification step, sodium salt, lactate salt, run 2): 89%

Fmoc form of βAla-Leu-Ala-Leu
crude HPLC purity [2]: 94%

Fmoc-βAla-Leu-Ala-Leu-Dox
crude HPLC purity [1, 8]: 90.23% | conjugation yield [1, 9]: 89.7%

PEPTIDE1{[Gl].[bAla].L.A.L.[Dox]}$$$$V2.0
crude HPLC purity ([1]; late stage modification step, method D, sodium salt): 87% | step yield [1, 10]: 97%

{MeOSuc-βAla}-Leu-Ala-Leu-OH
step yield [1, 4]: 78%

Fmoc form of βAla-Leu-Ala-Leu-Dnr
crude HPLC purity [1, 5]: 95% | conjugation yield [1, 6]: 94%
